The results in this text go back to PubChem BioAssay AID330 (DTP/NCI, 2004).

Each structure is given as a SMILES string. The list does not hold the whole screen: it gathers tests that were run many times, whatever their T/C, doses with no T/C, and many T/C values between a quarter and a half above the control. Other doses and runs of a compound stand elsewhere. T/C gives the treated animals as a percentage of the vehicle group. Some doses have a count of surviving animals in place of a T/C: the source holds a T/C of zero for them, seemingly a mark for toxic or unscored doses. Some survivor counts are full or nearly so, which does not show that the dose was tolerated: the source hardly ever lists a survival T/C far under the control, and the zero likely stands for such cases as well. Survivors were counted at the toxicity check, usually on the fifth day, unless a day is given; later deaths do not show. Schedules are NCI's codes, taken here to give the interval after Q, in days (D) or hours (H), and the number of doses after X. Additions like (4×) count equal records among those shown. Where survival is the endpoint, this PubChem deposit counts one and a half times the control or more as active, and values a quarter to a half above the control carry no call in these data; other NCI protocols may use other cut-offs. Some T/C values carry the count of animals alive at the toxicity check (mostly the fifth day); where none is given, no animal had died by that day.

For the test, the system named is P388 leukemia ip, CD2F1 mice, survival T/C. Description: NCI In Vivo Anticancer Drug Screen. Data for tumor model P388 Leukemia (intraperitoneal) in CD2F1 (CDF1) mice. Particulars: T/C endpoint: median survival time, higher T/C = longer survival.
The mark [1] stands for this setting: dose: 400.0 mg/kg/injection, schedule: Q01DX009 (ip), vehicle: saline.
Setting [2] is: dose: 200.0 mg/kg/injection, schedule: Q01DX005 (ip), vehicle: saline with Tween-80.
The mark [3] stands for this setting: dose: 200.0 mg/kg/injection, schedule: Q04DX003 (ip), vehicle: saline with Tween-80.
[4] abbreviates: dose: 400.0 mg/kg/injection, schedule: Q04DX003 (ip), vehicle: saline with Tween-80.
Where [5] appears, read: dose: 120.0 mg/kg/injection, schedule: Q01DX005 (ip), vehicle: Klucel (hydroxypropylcellulose) (HPC).
The mark [6] stands for this setting: dose: 60.0 mg/kg/injection, schedule: Q01DX005 (ip), vehicle: saline with Tween-80.
Where [7] appears, read: dose: 120.0 mg/kg/injection, schedule: Q01DX005 (ip), vehicle: saline with Tween-80.
The mark [8] stands for this setting: dose: 240.0 mg/kg/injection, schedule: Q01DX005 (ip), vehicle: saline with Tween-80.
Setting [9] is: dose: 200.0 mg/kg/injection, schedule: Q01DX009 (ip), vehicle: saline with Tween-80.
The mark [10] stands for this setting: dose: 100.0 mg/kg/injection, schedule: Q01DX005 (ip), vehicle: Klucel (hydroxypropylcellulose) (HPC).
The mark [11] stands for this setting: dose: 50.0 mg/kg/injection, schedule: Q01DX009 (ip), vehicle: Klucel (hydroxypropylcellulose) (HPC).

Regarding `c1cc2n(n1)CCN2`, the T/C is, setting by setting: (dose: 180.0 mg/kg/injection, schedule: Q01DX009 (ip), vehicle: saline) 130 % of control; (dose: 270.0 mg/kg/injection, schedule: Q01DX009 (ip), vehicle: saline) 148 % of control; (dose: 450.0 mg/kg/injection, schedule: Q03DX003 (ip), vehicle: saline) 126 % of control. The survivor count runs as follows: (dose: 200.0 mg/kg/injection, schedule: Q01DX009 (ip), vehicle: saline) 2 of 6; under setting [1], 1 of 6 (2×); (dose: 600.0 mg/kg/injection, schedule: Q04DX003 (ip), vehicle: saline) 5 of 6.

Regarding `c1ccc(-[n+]2ccc(-c3cc[n+](-c4ccccc4)cc3)cc2)cc1`, the survivor count was 1 of 6 (dose: 200.0 mg/kg/injection, schedule: Q04DX002 (ip), vehicle: Klucel (hydroxypropylcellulose) (HPC)) and 1 of 6 (dose: 400.0 mg/kg/injection, schedule: Q04DX002 (ip), vehicle: Klucel (hydroxypropylcellulose) (HPC)).

With `CCCC1CCC(=C2C(=O)CCC2=O)O1` (centres undefined), the survivor count (dose: 400.0 mg/kg/injection, schedule: Q04DX002 (ip), vehicle: saline with Tween-80) is given as 0 of 6.

For `COc1ccc2c(c1OC)C(=C(Cl)Cl)N1CCc3cc4c(cc3C1=C2C=O)OCO4`, the survivor count by setting is: (dose: 100.0 mg/kg/injection, schedule: Q01DX005 (ip), vehicle: saline with Tween-80) 6 of 6; under setting [2], 6 of 6.

On to `O=C(Oc1ccc[nH]c1=O)c1ccc(F)cc1`, for which the survivor count under setting [1] is recorded as 6 of 6.

As to `CCOC(=O)/C(C#N)=C\c1ccc(/C=C(\C#N)C(=O)OCC)cc1`, the survivor count reads like this: under setting [3], 4 of 6; under setting [4], 4 of 6.

Turning to `C=C(C)C(=O)OC1C/C(CO)=C\C(O)C/C(C)=C/C2OC(=O)C(=C)C21` (centres undefined), the T/C is, setting by setting: (dose: 5.0 mg/kg/injection, schedule: Q01DX009 (ip), vehicle: saline + alcohol) 141 % of control; (dose: 10.0 mg/kg/injection, schedule: Q01DX009 (ip), vehicle: saline + alcohol) 132 % of control. The survivor count (dose: 40.0 mg/kg/injection, schedule: Q01DX009 (ip), vehicle: saline + alcohol) was 3 of 6.

As for `COCN1C(=O)N2C(c3ccccc3)(c3ccccc3)C(C(=O)OC)=C(C(=O)OC)P12(c1ccccc1)c1ccccc1`, the survivor count under setting [5] was 6 of 6.

In the case of `COC(=O)N1c2ccccc2C(c2ccccc2)=NC1C#N` (centres undefined), the survivor count reads like this: under setting [6], 6 of 6; under setting [7], 0 of 6; under setting [8], 0 of 6.

On to `[Ag].[Ag].[NH-]S(=O)(=O)c1ccc(N=Nc2cc(N=Nc3ccc(S([NH-])(=O)=O)cc3)c3c(NC(=O)C(Cl)Cl)cccc3c2OC(=O)C(Cl)Cl)cc1.[c-]1nccs1.[c-]1nccs1`, for which the survivor count (dose: 100.0 mg/kg/injection, schedule: Q01DX009 (ip), vehicle: saline with Tween-80) is listed as 4 of 6 and the survivor count under setting [9] is reported as 0 of 6.

On to `CC(=O)OCC1OC(OC(C)=O)C(N(CCCl)CCCl)C(OC(C)=O)C1OC(C)=O` (centres undefined), for which the survivor count reads like this: (dose: 5.0 mg/kg/injection, schedule: Q01DX005 (ip), vehicle: distilled water + Tween-80) 5 of 5; (dose: 10.0 mg/kg/injection, schedule: Q01DX005 (ip), vehicle: distilled water + Tween-80) 4 of 5; (dose: 20.0 mg/kg/injection, schedule: Q01DX005 (ip), vehicle: distilled water + Tween-80) 1 of 5; (dose: 40.0 mg/kg/injection, schedule: Q01DX005 (ip), vehicle: distilled water + Tween-80) 0 of 5.

`Cc1nc(C#N)c(=N)n(O)c1Cl`: the T/C (dose: 12.5 mg/kg/injection, schedule: Q01DX009 (ip), vehicle: saline with Tween-80) was 127 % of control [5 of 6 alive] and the T/C (dose: 25.0 mg/kg/injection, schedule: Q01DX009 (ip), vehicle: saline with Tween-80) is 133 % of control. Besides, the survivor count (dose: 50.0 mg/kg/injection, schedule: Q01DX009 (ip), vehicle: saline with Tween-80) was 4 of 6.

With `O=C(OCC1OC(O)(COC(=O)c2ccccc2)C(OC(=O)c2ccccc2)C1OC(=O)c1ccccc1)c1ccccc1` (centres undefined), the survivor count by setting is: under setting [10], 5 of 5; (dose: 200.0 mg/kg/injection, schedule: Q01DX005 (ip), vehicle: Klucel (hydroxypropylcellulose) (HPC)) 5 of 5.

Regarding `O=C(Nc1ccc(Cl)cc1)Nc1nnc(COc2ccc(Cl)c(Cl)c2)o1`, the survivor count by setting is: (dose: 30.0 mg/kg/injection, schedule: Q01DX005 (ip), vehicle: saline with Tween-80) 6 of 6; under setting [6], 6 of 6.

On to `O=C(c1ccc2c(c1)C(=O)NC2=O)c1ccc2c(c1)C(=O)NC2=O`, for which, under setting [9], the survivor count was 6 of 6.

Turning to `CCOC(OCC)/C(=C\N(C)C)N=C(C#N)C#N`, under setting [2], the survivor count was 0 of 6.

Take `N#Cc1c(-c2ccc(Cl)cc2)c(-c2ccc(Cl)cc2)nn(CCOC(=O)CCC(=O)OCCn2nc(-c3ccc(Cl)cc3)c(-c3ccc(Cl)cc3)c(C#N)c2=O)c1=O`: where the note is “dose: 200.0 mg/kg/injection, schedule: Q04DX002 (ip), vehicle: distilled water + Tween-80”, the survivor count is 6 of 6.

Regarding `ClC1(Cl)C(=C=C2C3CC4CC(C3)CC2C4)C12C1CC3CC(C1)CC2C3` (centres undefined), under setting [11], the survivor count is given as 6 of 6.

As to `O=C1C2C3(CCl)C1C23CCl` (centres undefined), the survivor count reads like this: (dose: 60.0 mg/kg/injection, schedule: Q01DX005 (ip), vehicle: Klucel (hydroxypropylcellulose) (HPC)) 0 of 6; under setting [5], 0 of 6; (dose: 240.0 mg/kg/injection, schedule: Q01DX005 (ip), vehicle: Klucel (hydroxypropylcellulose) (HPC)) 0 of 6.

As for `Cc1cc2c3c([nH]c2cc1[N+](=O)[O-])CCCC3=O`, the survivor count is, setting by setting: (dose: 50.0 mg/kg/injection, schedule: Q01DX005 (ip), vehicle: Klucel (hydroxypropylcellulose) (HPC)) 5 of 5; under setting [10], 5 of 5.

Take `CCc1ccccc1NC(=O)C(C#N)C1=C(Cl)C(=O)c2ccccc2C1=O` (centres undefined): under setting [8], the survivor count is 1 of 6.

Turning to `CC1CCCC(CN=Cc2cc([N+](=O)[O-])ccc2O)[N-]1.CC1CCCC(CN=Cc2cc([N+](=O)[O-])ccc2O)[N-]1.[Ni+2]` (centres undefined), the survivor count (dose: 100.0 mg/kg/injection, schedule: Q04DX003 (ip), vehicle: saline with Tween-80) was 6 of 6; the survivor count under setting [3] was 6 of 6; the survivor count under setting [4] was 6 of 6.

Take `ClC1CCCCC1C(C1CCCCC1)C1CCCCC1` (centres undefined): the survivor count under setting [2] is 5 of 5.

Regarding `c1cc[c]([Pb]([S]c2nc3ccccc3[nH]2)([c]2ccccc2)[c]2ccccc2)cc1`, the survivor count is, setting by setting: (dose: 6.0 mg/kg/injection, schedule: Q01DX009 (ip), vehicle: Klucel (hydroxypropylcellulose) (HPC)) 5 of 6; (dose: 12.0 mg/kg/injection, schedule: Q01DX009 (ip), vehicle: Klucel (hydroxypropylcellulose) (HPC)) 0 of 6.

Turning to `C[As](C)SCCC(CCCCC(=O)O)S[As](C)C` (centres undefined), the T/C was 128 % of control (dose: 25.0 mg/kg/injection, schedule: Q01DX009 (ip), vehicle: Klucel (hydroxypropylcellulose) (HPC)) and 128 % of control under setting [11]. The survivor count under setting [11] is recorded as 1 of 6; the survivor count (dose: 100.0 mg/kg/injection, schedule: Q01DX009 (ip), vehicle: Klucel (hydroxypropylcellulose) (HPC)) was 2 of 6; the survivor count (dose: 200.0 mg/kg/injection, schedule: Q01DX009 (ip), vehicle: Klucel (hydroxypropylcellulose) (HPC)) is recorded as 0 of 6; the survivor count under setting [3] is reported as 0 of 6.

In the case of `CC1=CC2N(C=C1)C(c1ccccc1)=NON2c1cc(C)ccn1` (centres undefined), the survivor count reads like this: under setting [6], 6 of 6; under setting [7], 6 of 6; under setting [8], 6 of 6.
